The supplement of paper PMC6411743
± gives the standard deviation of the averaged measurements. Only a part is listed here, and it is no random draw. Most entries show no effect beyond the scatter of the controls.

By UniProt entry, the sequences of proteins in these tests, tags left out. Where a name states a change or a piece, a line headed by the entry shows the natural chain unless it says otherwise.
UniProt O96008: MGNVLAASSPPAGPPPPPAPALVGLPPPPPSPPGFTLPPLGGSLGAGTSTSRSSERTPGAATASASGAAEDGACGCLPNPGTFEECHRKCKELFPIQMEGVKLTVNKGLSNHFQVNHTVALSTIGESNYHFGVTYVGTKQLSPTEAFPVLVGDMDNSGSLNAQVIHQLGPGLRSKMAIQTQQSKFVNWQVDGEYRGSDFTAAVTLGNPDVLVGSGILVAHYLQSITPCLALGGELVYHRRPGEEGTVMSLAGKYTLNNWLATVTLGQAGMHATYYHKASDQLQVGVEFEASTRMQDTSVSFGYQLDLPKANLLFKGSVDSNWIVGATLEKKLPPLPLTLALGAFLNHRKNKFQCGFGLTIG
UniProt P06280: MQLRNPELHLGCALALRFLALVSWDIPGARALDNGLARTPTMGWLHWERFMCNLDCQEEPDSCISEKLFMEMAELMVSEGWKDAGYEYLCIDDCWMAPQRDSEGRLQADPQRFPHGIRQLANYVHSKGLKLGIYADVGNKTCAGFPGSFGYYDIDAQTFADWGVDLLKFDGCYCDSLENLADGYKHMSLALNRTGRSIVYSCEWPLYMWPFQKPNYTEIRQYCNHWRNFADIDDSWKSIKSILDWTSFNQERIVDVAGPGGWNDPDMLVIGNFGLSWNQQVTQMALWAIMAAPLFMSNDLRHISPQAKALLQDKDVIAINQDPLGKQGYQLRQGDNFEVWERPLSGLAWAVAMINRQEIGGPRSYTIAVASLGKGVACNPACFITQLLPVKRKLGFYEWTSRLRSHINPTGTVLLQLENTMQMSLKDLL
UniProt P10155: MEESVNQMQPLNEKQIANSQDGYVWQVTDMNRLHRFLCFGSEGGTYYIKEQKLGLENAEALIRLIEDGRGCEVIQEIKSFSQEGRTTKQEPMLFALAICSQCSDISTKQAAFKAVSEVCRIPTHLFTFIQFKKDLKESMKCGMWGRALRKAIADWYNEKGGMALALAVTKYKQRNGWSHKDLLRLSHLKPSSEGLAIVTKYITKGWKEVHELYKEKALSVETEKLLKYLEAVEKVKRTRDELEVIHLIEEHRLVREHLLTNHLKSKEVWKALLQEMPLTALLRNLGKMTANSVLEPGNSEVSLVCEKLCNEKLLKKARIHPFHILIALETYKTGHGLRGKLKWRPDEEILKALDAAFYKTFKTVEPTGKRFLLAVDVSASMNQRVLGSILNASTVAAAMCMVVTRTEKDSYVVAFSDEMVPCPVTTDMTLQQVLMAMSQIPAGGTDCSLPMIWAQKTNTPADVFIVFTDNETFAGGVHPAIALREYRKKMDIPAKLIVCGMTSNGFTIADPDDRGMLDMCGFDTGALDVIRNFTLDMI
UniProt P00374: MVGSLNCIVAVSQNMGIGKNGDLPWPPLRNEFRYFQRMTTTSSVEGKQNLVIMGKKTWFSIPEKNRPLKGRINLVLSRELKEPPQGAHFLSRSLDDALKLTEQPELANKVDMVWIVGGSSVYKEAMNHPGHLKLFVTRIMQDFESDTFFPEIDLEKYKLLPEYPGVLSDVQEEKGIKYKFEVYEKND
UniProt P01737: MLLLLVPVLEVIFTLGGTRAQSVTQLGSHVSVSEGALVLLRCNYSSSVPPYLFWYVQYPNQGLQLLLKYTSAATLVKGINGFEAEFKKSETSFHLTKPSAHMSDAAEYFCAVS
UniProt P14649: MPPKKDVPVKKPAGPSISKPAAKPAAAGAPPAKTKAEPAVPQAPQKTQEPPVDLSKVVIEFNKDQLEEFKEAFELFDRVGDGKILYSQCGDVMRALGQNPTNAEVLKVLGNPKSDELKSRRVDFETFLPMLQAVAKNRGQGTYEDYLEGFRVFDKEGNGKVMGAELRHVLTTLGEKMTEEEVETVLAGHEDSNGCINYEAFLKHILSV
UniProt P04899, whole entry: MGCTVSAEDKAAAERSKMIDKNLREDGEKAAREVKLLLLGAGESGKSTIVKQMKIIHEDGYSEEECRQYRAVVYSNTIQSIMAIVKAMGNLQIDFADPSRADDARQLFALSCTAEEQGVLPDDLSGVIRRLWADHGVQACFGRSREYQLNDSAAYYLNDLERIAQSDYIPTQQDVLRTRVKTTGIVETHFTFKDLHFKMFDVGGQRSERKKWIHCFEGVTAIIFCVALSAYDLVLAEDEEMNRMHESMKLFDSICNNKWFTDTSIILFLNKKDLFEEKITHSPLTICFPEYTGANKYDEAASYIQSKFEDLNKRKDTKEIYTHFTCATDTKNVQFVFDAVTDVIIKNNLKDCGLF
UniProt P11831: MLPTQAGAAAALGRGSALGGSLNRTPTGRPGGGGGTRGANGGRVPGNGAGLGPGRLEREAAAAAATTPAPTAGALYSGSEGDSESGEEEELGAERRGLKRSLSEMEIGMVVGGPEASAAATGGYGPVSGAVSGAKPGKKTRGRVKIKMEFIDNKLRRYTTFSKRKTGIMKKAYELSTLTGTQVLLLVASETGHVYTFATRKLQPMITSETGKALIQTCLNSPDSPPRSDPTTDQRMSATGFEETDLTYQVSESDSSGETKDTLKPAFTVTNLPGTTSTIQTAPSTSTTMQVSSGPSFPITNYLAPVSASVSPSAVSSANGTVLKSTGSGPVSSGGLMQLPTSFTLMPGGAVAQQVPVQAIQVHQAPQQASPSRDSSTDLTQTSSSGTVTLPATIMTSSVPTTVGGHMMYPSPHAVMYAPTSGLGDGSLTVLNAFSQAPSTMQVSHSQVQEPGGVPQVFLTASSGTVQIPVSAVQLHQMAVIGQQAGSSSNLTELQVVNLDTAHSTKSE
UniProt O95822: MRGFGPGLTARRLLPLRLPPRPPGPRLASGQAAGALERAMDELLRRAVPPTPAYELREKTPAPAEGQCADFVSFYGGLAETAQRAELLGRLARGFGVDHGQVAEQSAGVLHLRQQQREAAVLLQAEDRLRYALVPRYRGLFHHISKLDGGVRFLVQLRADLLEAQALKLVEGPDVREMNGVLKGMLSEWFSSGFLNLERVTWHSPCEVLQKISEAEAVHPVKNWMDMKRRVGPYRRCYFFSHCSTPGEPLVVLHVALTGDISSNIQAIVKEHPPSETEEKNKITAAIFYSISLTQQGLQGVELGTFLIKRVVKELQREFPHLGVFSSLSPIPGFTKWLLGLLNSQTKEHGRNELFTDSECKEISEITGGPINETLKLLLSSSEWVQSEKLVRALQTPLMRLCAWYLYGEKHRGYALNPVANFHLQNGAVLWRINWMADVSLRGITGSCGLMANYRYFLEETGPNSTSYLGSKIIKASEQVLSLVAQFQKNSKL
UniProt P09960: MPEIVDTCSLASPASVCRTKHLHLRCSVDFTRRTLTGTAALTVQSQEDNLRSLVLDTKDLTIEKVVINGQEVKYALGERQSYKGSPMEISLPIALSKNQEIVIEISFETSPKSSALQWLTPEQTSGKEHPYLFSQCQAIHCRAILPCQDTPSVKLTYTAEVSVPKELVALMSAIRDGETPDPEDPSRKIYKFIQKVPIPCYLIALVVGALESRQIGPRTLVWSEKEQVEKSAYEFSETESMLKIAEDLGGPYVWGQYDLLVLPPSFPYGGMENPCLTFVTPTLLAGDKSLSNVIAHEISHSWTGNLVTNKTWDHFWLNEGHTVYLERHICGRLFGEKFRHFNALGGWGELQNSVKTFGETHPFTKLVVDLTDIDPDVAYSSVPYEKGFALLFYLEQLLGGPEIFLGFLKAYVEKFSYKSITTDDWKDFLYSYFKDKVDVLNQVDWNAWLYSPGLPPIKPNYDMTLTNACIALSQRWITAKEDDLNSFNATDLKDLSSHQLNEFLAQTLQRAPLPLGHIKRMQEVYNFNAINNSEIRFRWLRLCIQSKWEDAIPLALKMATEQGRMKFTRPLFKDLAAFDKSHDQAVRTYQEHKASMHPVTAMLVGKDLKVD
UniProt P12236: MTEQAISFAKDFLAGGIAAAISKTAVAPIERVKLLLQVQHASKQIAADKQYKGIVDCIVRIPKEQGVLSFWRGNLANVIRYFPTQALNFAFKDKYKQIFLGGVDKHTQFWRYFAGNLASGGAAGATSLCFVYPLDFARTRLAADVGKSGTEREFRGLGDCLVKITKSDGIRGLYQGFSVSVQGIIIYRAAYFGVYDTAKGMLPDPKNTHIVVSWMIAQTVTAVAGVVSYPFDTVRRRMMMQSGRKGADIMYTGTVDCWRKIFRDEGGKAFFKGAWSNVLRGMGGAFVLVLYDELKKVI
UniProt P09525: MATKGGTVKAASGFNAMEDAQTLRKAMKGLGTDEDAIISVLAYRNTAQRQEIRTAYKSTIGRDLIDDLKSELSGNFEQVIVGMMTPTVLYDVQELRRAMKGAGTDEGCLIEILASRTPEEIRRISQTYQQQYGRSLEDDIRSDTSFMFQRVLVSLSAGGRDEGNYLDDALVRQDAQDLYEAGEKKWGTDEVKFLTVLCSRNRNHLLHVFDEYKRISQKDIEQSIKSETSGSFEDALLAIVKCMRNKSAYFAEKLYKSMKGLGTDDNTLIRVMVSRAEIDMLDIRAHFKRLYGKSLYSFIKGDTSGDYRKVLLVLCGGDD
UniProt P09669, whole entry: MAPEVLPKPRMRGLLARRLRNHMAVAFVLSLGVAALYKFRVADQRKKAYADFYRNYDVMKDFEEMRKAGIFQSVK
UniProt P10244: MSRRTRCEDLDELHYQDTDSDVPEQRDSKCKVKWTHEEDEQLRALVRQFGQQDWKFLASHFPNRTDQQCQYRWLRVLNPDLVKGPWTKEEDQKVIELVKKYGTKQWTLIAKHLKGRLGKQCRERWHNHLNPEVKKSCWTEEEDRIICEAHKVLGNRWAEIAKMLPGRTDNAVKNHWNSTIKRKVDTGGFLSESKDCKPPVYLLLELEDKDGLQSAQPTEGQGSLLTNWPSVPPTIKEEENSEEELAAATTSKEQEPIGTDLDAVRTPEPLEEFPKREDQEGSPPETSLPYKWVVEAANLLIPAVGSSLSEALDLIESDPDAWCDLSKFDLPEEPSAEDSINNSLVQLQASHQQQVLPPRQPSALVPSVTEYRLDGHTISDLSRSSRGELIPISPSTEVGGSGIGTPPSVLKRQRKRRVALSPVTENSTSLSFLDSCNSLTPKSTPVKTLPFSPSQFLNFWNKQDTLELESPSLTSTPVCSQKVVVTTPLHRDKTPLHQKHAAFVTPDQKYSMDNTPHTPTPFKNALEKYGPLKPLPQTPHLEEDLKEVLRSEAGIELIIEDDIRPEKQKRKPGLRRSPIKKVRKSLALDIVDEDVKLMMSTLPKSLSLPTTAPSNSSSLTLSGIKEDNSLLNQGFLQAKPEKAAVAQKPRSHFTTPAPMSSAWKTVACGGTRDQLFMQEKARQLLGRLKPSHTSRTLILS
UniProt P14866: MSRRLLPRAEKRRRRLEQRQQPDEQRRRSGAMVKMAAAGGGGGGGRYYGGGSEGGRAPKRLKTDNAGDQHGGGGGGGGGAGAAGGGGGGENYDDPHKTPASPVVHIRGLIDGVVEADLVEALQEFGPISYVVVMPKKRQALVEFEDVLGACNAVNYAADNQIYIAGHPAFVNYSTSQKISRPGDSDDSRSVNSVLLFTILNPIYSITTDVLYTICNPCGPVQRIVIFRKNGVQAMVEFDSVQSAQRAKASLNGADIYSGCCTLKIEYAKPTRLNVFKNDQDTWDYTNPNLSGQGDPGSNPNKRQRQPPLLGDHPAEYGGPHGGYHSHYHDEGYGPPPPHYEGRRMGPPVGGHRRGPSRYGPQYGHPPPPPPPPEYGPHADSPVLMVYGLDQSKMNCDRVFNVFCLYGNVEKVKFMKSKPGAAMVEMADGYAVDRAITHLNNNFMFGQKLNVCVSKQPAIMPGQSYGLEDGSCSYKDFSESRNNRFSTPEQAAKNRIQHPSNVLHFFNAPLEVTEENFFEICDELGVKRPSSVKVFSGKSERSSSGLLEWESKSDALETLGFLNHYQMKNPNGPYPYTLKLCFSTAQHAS
UniProt P09651: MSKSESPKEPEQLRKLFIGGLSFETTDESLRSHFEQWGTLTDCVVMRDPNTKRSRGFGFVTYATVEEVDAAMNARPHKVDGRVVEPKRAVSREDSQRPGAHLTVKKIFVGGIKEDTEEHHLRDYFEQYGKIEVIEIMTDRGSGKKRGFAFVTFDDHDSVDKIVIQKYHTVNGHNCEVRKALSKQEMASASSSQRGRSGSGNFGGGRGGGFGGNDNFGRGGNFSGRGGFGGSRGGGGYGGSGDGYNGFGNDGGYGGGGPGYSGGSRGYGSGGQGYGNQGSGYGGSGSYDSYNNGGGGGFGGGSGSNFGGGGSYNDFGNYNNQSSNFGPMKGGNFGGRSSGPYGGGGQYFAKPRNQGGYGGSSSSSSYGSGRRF
UniProt P09382, whole entry: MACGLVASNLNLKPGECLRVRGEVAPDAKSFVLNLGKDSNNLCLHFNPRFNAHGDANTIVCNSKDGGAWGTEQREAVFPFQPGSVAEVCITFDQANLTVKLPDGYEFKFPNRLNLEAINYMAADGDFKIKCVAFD
UniProt P00492: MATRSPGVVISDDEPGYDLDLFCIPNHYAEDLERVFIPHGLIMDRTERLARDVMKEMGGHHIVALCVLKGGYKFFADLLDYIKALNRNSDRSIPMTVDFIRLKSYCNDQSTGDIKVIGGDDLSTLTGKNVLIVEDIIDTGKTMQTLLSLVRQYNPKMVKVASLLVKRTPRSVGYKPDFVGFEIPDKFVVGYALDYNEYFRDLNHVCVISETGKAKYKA

Compound: Nc1ncnc2c1ncn2[C@@H]1O[C@H](COP(=O)(O)OP(=O)(O)OP(=O)(O)O)[C@@H](O)[C@H]1O [adenosine triphosphate]
Assay: NP40-soluble protein abundance relative to vehicle (solubility fold change) (ratio); higher = more soluble protein in presence of ATP
Method in brief: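 Eight concentrations, 0.1 to 10 mM, were tested on Jurkat crude lysate for 10 min at room temperature and then 3 min at 37 °C, in three independent experiments. The lysate was solubilised with 0.8% NP40 and benzonase, ultracentrifuged, and the supernatant TMT-labelled for LC-MS/MS. Each value is the fold change against the detergent-processed vehicle in its own replicate, from vsn-normalised intensities.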

Target | NP40-soluble protein abundance (concentration: 0.1mM) | NP40-soluble protein abundance (concentration: 0.5mM)
EPRS (UniProt P07814) | 1.02 ± 0.056 | 1.03 ± 0.056
UniProt P09543-2 | 1.09 ± 0.036 | 1.18 ± 0.055
UniProt P07355 and related entries | 1.01 ± 0.018 | 0.985 ± 0.038
TOMM40 (UniProt O96008) | 1.03 ± 0.074 | 1.02 ± 0.031
NCK1 (UniProt P16333) | 1.05 ± 0.043 | 1.01 ± 0.087
GLA (UniProt P06280) | 0.967 ± 0.028 | 0.997 ± 0.041
UniProt P10155 | 1.02 ± 0.055 | 1.02 ± 0.045
UniProt P11413 and related entries | 1.04 ± 0.12 | 1.04 ± 0.07
DHFR (UniProt P00374) | 1.04 ± 0.089 | 1.07 ± 0.067
UniProt P01737 | 0.952 ± 0.051 | 0.925 ± 0.082
MYL6B (UniProt P14649) | 0.853 ± 0.12 | 0.877 ± 0.14
GOT2 (UniProt P00505) | 0.963 ± 0.14 | 1 ± 0.064
GNAI2 (UniProt P04899) | 1.11 ± 0.097 | 1.1 ± 0.14
SRF (UniProt P11831) | 0.962 ± 0.057 | 0.976 ± 0.037
UniProt O95822 and related entries | 1.05 ± 0.084 | 1.02 ± 0.024
LTA4H (UniProt P09960) | 1.03 ± 0.091 | 1.03 ± 0.052
SLC25A6 (UniProt P12236) | 0.918 ± 0.033 | 0.932 ± 0.036
UniProt P09525 and related entries | 0.958 ± 0.021 | 0.95 ± 0.059
UniProt P09497-2 | 0.929 ± 0.076 | 0.931 ± 0.071
COX6C (UniProt P09669) | 0.835 ± 0.2 | 0.887 ± 0.34
BAG3 (UniProt O95817) | 1 ± 0.12 | 0.91 ± 0.25
RPS2 (UniProt P15880) | 0.913 ± 0.073 | 0.911 ± 0.099
UniProt P10244 and related entries | 0.946 ± 0.095 | 1.09 ± 0.043
HNRNPL (UniProt P14866) | 1.03 ± 0.05 | 1.09 ± 0.056
UniProt P09651 and related entries | 0.987 ± 0.072 | 1.07 ± 0.063
LGALS1 (UniProt P09382) | 1.01 ± 0.0094 | 1.004 ± 0.0086
UniProt P01733 | 1.06 ± 0.039 | 0.964 ± 0.073
EEF2 (UniProt P13639) | 0.995 ± 0.087 | 0.999 ± 0.06
HPRT1 (UniProt P00492) | 1.01 ± 0.067 | 0.991 ± 0.041

At a glance, some entries already given:
Target | NP40-soluble protein abundance (concentration: 0.1mM) | NP40-soluble protein abundance (concentration: 0.5mM)
LTA4H (UniProt P09960) | 1.03 ± 0.091 | 1.03 ± 0.052
SLC25A6 (UniProt P12236) | 0.918 ± 0.033 | 0.932 ± 0.036
